PubChem BioAssay AID686938 – Drosophila RNAi Screening Center | 2013

Assay: 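Looking for CRAC channel components and the factors controlling them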 (primary screen)
Cell system: Drosophila S2R+ cells
Knock-down reagent: long dsRNA against Drosophila genes, about 0.25 µg dsRNA per well, roughly 10,000 cells
Duration: 5 days of knock-down before the calcium assay
Treatment: thapsigargin (SERCA pump blocker) to empty calcium stores; entry signal taken 4 min after adding it
Read-out: 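Per-well fluo-4 fluorescence in two replicates, unnormalised, measured in resting cells and 4 min after store depletion by the SERCA blocker thapsigargin; ratio of the two present in few wells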
Direction: calcium entry signal: higher = stronger calcium signal after store depletion; entry to resting ratio: higher = more calcium entry relative to resting level; resting calcium signal: higher = higher resting calcium signal
Hit rule: 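Hit if the duplicate-averaged plate z-score for entry over resting signal is under −3; wells with weak total dye signal (Fmax z < −2) or more than 5 off-targets removed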
Meaning of the calls: active = strongly reduced calcium entry; inactive = no strong reduction
The deposit covers about 23,000 reagents; this is an unselected part of those that have a named target and a result. Over the whole deposit, 75 (0.33%) are marked active. 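Raw plate signals without normalisation; calls rest on plate z-scores that were not deposited; ratio present for only 364 wells.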 A plus sign joins genes that one reagent is predicted to hit. Not given: the dose of the treatment.

gene | amplicon | calcium entry signal, replicate 1 (fluorescence units) | calcium entry signal, replicate 2 (fluorescence units) | entry to resting ratio | resting calcium signal, replicate 1 (fluorescence units) | resting calcium signal, replicate 2 (fluorescence units) | Call
ND-13B (NADH dehydrogenase (ubiquinone) 13 kDa B subunit) | DRSC10643 | 2.52e7 | 2.75e7 | – | 1.34e7 | 1.30e7 | inactive
Sems (Seminase) | DRSC11626 | 3.67e7 | 5.33e7 | – | 1.67e7 | 2.26e7 | inactive
Smg5 (Smg5 nonsense mediated mRNA decay factor) | DRSC03124 | 3.77e7 | – | – | 2.00e7 | – | inactive
gprs | DRSC06761 | 5.09e7 | 5.48e7 | – | 2.21e7 | 2.58e7 | inactive
Src64B (Src oncogene at 64B) | DRSC08700 | 2.45e7 | 4.48e7 | – | 1.16e7 | 1.80e7 | inactive
bsk (basket) | DRSC03499 | 4.13e7 | – | – | 2.21e7 | – | inactive
crp (cropped) | DRSC03515 | 3.14e7 | 2.29e7 | – | 1.53e7 | 1.14e7 | inactive
Rab35 | DRSC20691 | 8.29e7 | 7.23e7 | – | 5.52e7 | 5.16e7 | inactive
Mocs2A + Mocs2B | DRSC13697 | 2.65e7 | 1.85e7 | – | 1.31e7 | 1.04e7 | inactive
Mocs2A + Mocs2B | DRSC14219 | 4.89e7 | 5.34e7 | – | 2.39e7 | 2.03e7 | inactive
Pink1 (PTEN-induced putative kinase 1) | DRSC18361 | 3.66e7 | 4.10e7 | – | 1.82e7 | 1.81e7 | inactive
Rsph9 (Radial spoke head protein 9) | DRSC01594 | 3.62e7 | 3.98e7 | – | 1.93e7 | 1.95e7 | inactive
Helz (Helicase with zinc finger) | DRSC11072 | 2.86e7 | 4.43e7 | – | 1.35e7 | 2.71e7 | inactive
Ephrin | DRSC17165 | 3.83e7 | 5.86e7 | 2 | 1.90e7 | 2.24e7 | inactive
CG11638 | DRSC18167 | 3.74e7 | 5.42e7 | 2.3 | 1.63e7 | 2.10e7 | inactive
CG11638 | DRSC18640 | 4.00e7 | 4.92e7 | 2.1 | 1.92e7 | 1.93e7 | inactive
rasp | DRSC08191 | 3.63e7 | 3.30e7 | – | 1.97e7 | 1.51e7 | inactive
Rlip (Ral interacting protein) | DRSC16828 | 4.75e7 | 4.53e7 | – | 5.05e7 | 2.04e7 | inactive
CG11380 | DRSC18632 | 5.19e7 | 5.85e7 | 2 | 2.64e7 | 2.82e7 | inactive
CG11380 | DRSC23223 | 3.56e7 | 3.20e7 | – | 1.76e7 | 1.50e7 | inactive
Cdk5 (Cyclin-dependent kinase 5) | DRSC07359 | 3.15e7 | 2.47e7 | – | 1.37e7 | 1.21e7 | inactive
CG6136 | DRSC15975 | 3.49e7 | 4.76e7 | – | 1.43e7 | 2.10e7 | inactive
RhoGEF2 (Rho guanine nucleotide exchange factor 2) | DRSC07531 | 4.36e7 | 3.51e7 | – | 1.82e7 | 1.67e7 | inactive
CG6845 | DRSC08576 | 4.95e7 | 4.51e7 | – | 2.28e7 | 1.96e7 | inactive
CG7860 | DRSC20060 | 2.39e7 | 2.77e7 | – | 1.26e7 | 1.36e7 | inactive
AP-1sigma (Adaptor Protein complex 1, sigma subunit) | DRSC15899 | 2.87e7 | 2.52e7 | – | 1.43e7 | 1.20e7 | inactive
Cpsf100 (Cleavage and polyadenylation specificity factor 100) | DRSC14146 | 2.54e7 | 2.44e7 | – | 1.27e7 | 1.22e7 | inactive
CG13078 | DRSC02182 | 4.50e7 | 5.30e7 | – | 2.16e7 | 2.26e7 | inactive
IP3K2 (Inositol 1,4,5-triphosphate kinase 2) | DRSC19500 | 4.39e7 | 4.37e7 | – | 2.01e7 | 1.93e7 | inactive
IP3K2 (Inositol 1,4,5-triphosphate kinase 2) | DRSC19747 | 4.01e7 | 6.38e7 | – | 1.98e7 | 3.01e7 | inactive
IP3K2 (Inositol 1,4,5-triphosphate kinase 2) | DRSC22614 | 3.62e7 | 3.61e7 | – | 2.22e7 | 1.85e7 | inactive
CG4942 | DRSC10462 | 4.37e7 | 3.37e7 | – | 3.15e7 | 1.43e7 | inactive
CG11815 | DRSC08209 | 2.39e7 | 2.72e7 | – | 1.30e7 | 1.32e7 | inactive
Spc105R (Spc105-related) | DRSC11663 | 2.27e7 | 3.20e7 | – | 1.61e7 | 1.97e7 | active
Rpn5 (Regulatory particle non-ATPase 5) | DRSC12367 | 2.75e7 | 3.31e7 | – | 1.47e7 | 1.80e7 | inactive
CG9396 | DRSC16487 | 3.55e7 | 3.27e7 | – | 1.67e7 | 1.68e7 | inactive
Atg8a (Autophagy-related 8a) | DRSC18024 | 3.49e7 | 4.47e7 | – | 1.75e7 | 2.17e7 | inactive
gek (genghis khan) | DRSC04688 | 4.04e7 | – | – | 2.00e7 | – | inactive
CG6154 | DRSC15977 | 3.10e7 | 6.29e7 | – | 1.85e7 | 2.68e7 | inactive
CstF64 (Cleavage stimulation factor 64 kD subunit) | DRSC16616 | 3.79e7 | 3.97e7 | – | 4.73e7 | 1.85e7 | inactive
kud (kuduk) | DRSC11086 | 3.32e7 | 4.66e7 | – | 1.67e7 | 1.89e7 | inactive
CG30203 | DRSC06690 | 2.84e7 | 3.35e7 | – | 1.59e7 | 1.59e7 | inactive
Jon65Aiv (Jonah 65Aiv) | DRSC10644 | 2.38e7 | 4.16e7 | – | 1.20e7 | 1.81e7 | inactive
ABCB7 (ATP binding cassette subfamily B member 7) | DRSC08603 | 6.45e7 | 7.33e7 | – | 2.56e7 | 2.51e7 | inactive
Kr-h1 (Kruppel homolog 1) | DRSC00908 | 3.62e7 | 3.76e7 | – | 2.05e7 | 1.93e7 | inactive
Kr-h1 (Kruppel homolog 1) | DRSC03355 | 3.66e7 | – | – | 2.60e7 | – | inactive
caps (capricious) | DRSC11333 | 3.52e7 | 4.61e7 | – | 1.75e7 | 2.06e7 | inactive
caps (capricious) | DRSC22224 | 3.87e7 | 5.68e7 | – | 1.89e7 | 3.01e7 | inactive
CG6885 | DRSC10740 | 2.71e7 | 5.15e7 | – | 1.57e7 | 2.15e7 | inactive
CG12106 | DRSC17805 | 3.04e7 | 3.18e7 | – | 1.50e7 | 1.52e7 | inactive
nSMase (neutral sphingomyelinase) | DRSC08237 | 3.58e7 | 2.75e7 | – | 2.50e7 | 1.33e7 | inactive
coro (Coronin) | DRSC05007 | 3.99e7 | – | – | 2.02e7 | – | inactive
coro (Coronin) | DRSC21417 | 3.17e7 | 3.96e7 | – | 1.78e7 | 1.74e7 | inactive
Wsck | DRSC13682 | 4.48e7 | 3.62e7 | – | 2.12e7 | 2.01e7 | inactive
PH4alphaNE3 (prolyl-4-hydroxylase-alpha NE3) | DRSC16541 | 5.73e7 | 5.87e7 | – | 2.66e7 | 2.57e7 | inactive
sofe | DRSC19751 | 2.20e7 | 3.31e7 | – | 1.14e7 | 1.64e7 | inactive
CG14642 | DRSC12228 | 4.01e7 | 4.96e7 | – | 1.90e7 | 3.45e7 | inactive
CG18809 | DRSC19818 | 4.33e7 | 4.03e7 | – | 1.95e7 | 1.59e7 | inactive

Only “calcium entry signal, replicate 1 (fluorescence units)”, for 6 of the entries above:
CG11815 [DRSC08209]	2.39e7
Spc105R (Spc105-related) [DRSC11663]	2.27e7
Rpn5 (Regulatory particle non-ATPase 5) [DRSC12367]	2.75e7
CG9396 [DRSC16487]	3.55e7
Atg8a (Autophagy-related 8a) [DRSC18024]	3.49e7
gek (genghis khan) [DRSC04688]	4.04e7
